# This is one part of the list.
# B1: SspB A3vp1 (Streptococcus gordonii), Q54186 (protein)
# chain: MTNEADYQAKLAAYQTELARVQKANADAKATYEKAVEDNKAKNAAIKAENEEIKQRNAVAKTDYEAKLAKYEADLAKYKKEFAAYTAALAEAESKKKQDGYLSEPRSQSLNFKSEPNAIRTIDSSVHQYGQQELDALVKSWGISPTNPDRKKSRAYSYFNAINSNNTYAKLVLEKDKPVDVTYTGLKNSSFNGKKISKVVYTYTLKETGFNDGTKMTMFASSDPTVTAWYNDYFTSTNINVKVKFYDEEGQLMNLTGGLVNFSSLNRGNGSGAIDKDAIESVRNFNGRYIPISGSSIKIHENNSAYADSSNAEKSLGARWNTSEWDTTSSPNNWYGAIVGEITQSEISFNMASSKSGNIWFAFNSNINAIGVPTKPVAPTAPTQPMYETEKPLEPAPVAPSYENEPTPPVKTPDQPEPSKPAAALEHHHHHH
# How the values were obtained:
# Assay in all cases: glycan array binding signal (z-score within array); higher = stronger binding
# Details in all cases: glycan notation: IUPAC condensed, linker removed
# [1] = target: Fuc(a1-2)[Gal(a1-3)]Gal(b1-4)GlcNAc(b1-2)Man(a1-3)[Fuc(a1-2)[Gal(a1-3)]Gal(b1-4)GlcNAc(b1-2)Man(a1-6)]Man(b1-4)GlcNAc(b1-4)GlcNAc
# How it was run: (§1)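 Arrays were curated from the Consortium for Functional Glycomics database, 3228 in total, and kept only where the protein sequence was available. Binding is expressed as a within-array Z-score. This score was averaged across arrays of the same protein sequence at different concentrations or buffers and across linkers, and negative values can be read as non-binding.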
# [2] = target: Fuc(a1-2)[Gal(a1-3)]Gal(b1-4)GlcNAc(b1-2)Man(a1-3)[Fuc(a1-2)[Gal(a1-3)]Gal(b1-4)GlcNAc(b1-2)Man(a1-6)]Man(b1-4)GlcNAc(b1-4)[Fuc(a1-6)]GlcNAc
# How it was run: as §1
# [3] = target: Fuc(a1-2)[Gal(a1-3)]Gal(b1-4)GlcNAc(b1-3)GalNAc
# How it was run: as §1
# [4] = target: Fuc(a1-2)[Gal(a1-3)]Gal(b1-4)GlcNAc(b1-6)GalNAc
# How it was run: as §1
# [5] = target: Fuc(a1-2)[Gal(a1-3)]Gal(b1-4)[Fuc(a1-3)]Glc
# How it was run: as §1
# [6] = target: Fuc(a1-2)[Gal(a1-3)]Gal(b1-4)[Fuc(a1-3)]GlcNAc
# How it was run: as §1
# [7] = target: Fuc(a1-2)[Gal(a1-3)]Gal(b1-4)[Fuc(a1-3)]GlcNAc(b1-3)GalNAc
# How it was run: as §1
# [8] = target: Fuc(a1-2)[Gal(a1-4)]Gal(b1-4)GlcNAc
# How it was run: as §1
# [9] = target: Fuc(a1-2)[GalNAc(a1-3)]Gal
# How it was run: as §1
# [10] = target: Fuc(a1-2)[GalNAc(a1-3)]Gal(b1-3)GalNAc(a1-3)[Fuc(a1-2)]Gal(b1-4)GlcNAc
# How it was run: as §1
# [11] = target: Fuc(a1-2)[GalNAc(a1-3)]Gal(b1-3)GalNAc(b1-3)Gal(a1-4)Gal(b1-4)Glc
# How it was run: as §1
# [12] = target: Fuc(a1-2)[GalNAc(a1-3)]Gal(b1-3)GlcNAc
# How it was run: as §1
# [13] = target: Fuc(a1-2)[GalNAc(a1-3)]Gal(b1-3)GlcNAc(b1-2)Man(a1-3)[Fuc(a1-2)[GalNAc(a1-3)]Gal(b1-3)GlcNAc(b1-2)Man(a1-6)]Man(b1-4)GlcNAc(b1-4)GlcNAc
# How it was run: as §1
# [14] = target: Fuc(a1-2)[GalNAc(a1-3)]Gal(b1-3)GlcNAc(b1-2)Man(a1-3)[Fuc(a1-2)[GalNAc(a1-3)]Gal(b1-3)GlcNAc(b1-2)Man(a1-6)]Man(b1-4)GlcNAc(b1-4)[Fuc(a1-6)]GlcNAc
# How it was run: as §1
# [15] = target: Fuc(a1-2)[GalNAc(a1-3)]Gal(b1-3)GlcNAc(b1-3)GalNAc
# How it was run: as §1
# [16] = target: Fuc(a1-2)[GalNAc(a1-3)]Gal(b1-3)GlcNAc(b1-6)GalNAc
# How it was run: as §1
# [17] = target: Fuc(a1-2)[GalNAc(a1-3)]Gal(b1-4)Glc
# How it was run: as §1
# [18] = target: Fuc(a1-2)[GalNAc(a1-3)]Gal(b1-4)GlcNAc
# How it was run: as §1
# [19] = target: Fuc(a1-2)[GalNAc(a1-3)]Gal(b1-4)GlcNAc(b1-2)Man
# How it was run: as §1
# [20] = target: Fuc(a1-2)[GalNAc(a1-3)]Gal(b1-4)GlcNAc(b1-2)Man(a1-3)[Fuc(a1-2)[GalNAc(a1-3)]Gal(b1-4)GlcNAc(b1-2)Man(a1-6)]Man(b1-4)GlcNAc(b1-4)GlcNAc
# How it was run: as §1
# [21] = target: Fuc(a1-2)[GalNAc(a1-3)]Gal(b1-4)GlcNAc(b1-2)Man(a1-3)[Fuc(a1-2)[GalNAc(a1-3)]Gal(b1-4)GlcNAc(b1-2)Man(a1-6)]Man(b1-4)GlcNAc(b1-4)[Fuc(a1-6)]GlcNAc
# How it was run: as §1
# [22] = target: Fuc(a1-2)[GalNAc(a1-3)]Gal(b1-4)GlcNAc(b1-3)Gal(b1-4)GlcNAc
# How it was run: as §1
# [23] = target: Fuc(a1-2)[GalNAc(a1-3)]Gal(b1-4)GlcNAc(b1-3)Gal(b1-4)GlcNAc(b1-3)Gal(b1-4)GlcNAc
# How it was run: as §1
# [24] = target: Fuc(a1-2)[GalNAc(a1-3)]Gal(b1-4)GlcNAc(b1-3)GalNAc
# How it was run: as §1
# [25] = target: Fuc(a1-2)[GalNAc(a1-3)]Gal(b1-4)GlcNAc(b1-3)[Fuc(a1-2)[GalNAc(a1-3)]Gal(b1-4)GlcNAc(b1-6)]GalNAc
# How it was run: as §1
# [26] = target: Fuc(a1-2)[GalNAc(a1-3)]Gal(b1-4)GlcNAc(b1-6)GalNAc
# How it was run: as §1
# [27] = target: Fuc(a1-2)[GalNAc(a1-3)]Gal(b1-4)[Fuc(a1-3)]GlcNAc
# How it was run: as §1
# [28] = target: Fuc(a1-2)[GalNAc(a1-3)]Gal(b1-4)[Fuc(a1-3)]GlcNAc(b1-3)GalNAc
# How it was run: as §1
# [29] = target: Fuc(a1-2)[GalNAc(a1-4)]Gal(b1-4)GlcNAc
# How it was run: as §1
# [30] = target: Fuc(a1-2)[GalNAc(b1-3)]Gal
# How it was run: as §1
binder,measurement,setting,value
B1,glycan array binding signal (z-score),[1],0.492
same,glycan array binding signal (z-score),[2],-0.236
same,glycan array binding signal (z-score),[3],0.304
same,glycan array binding signal (z-score),[4],-0.435
same,glycan array binding signal (z-score),[5],-1.28
same,glycan array binding signal (z-score),[6],0.179
same,glycan array binding signal (z-score),[7],2.42
same,glycan array binding signal (z-score),[8],0.025
same,glycan array binding signal (z-score),[9],-0.591
same,glycan array binding signal (z-score),[10],0.239
same,glycan array binding signal (z-score),[11],-0.45
same,glycan array binding signal (z-score),[12],-0.775
same,glycan array binding signal (z-score),[13],0.151
same,glycan array binding signal (z-score),[14],-0.126
same,glycan array binding signal (z-score),[15],-0.377
same,glycan array binding signal (z-score),[16],2.01
same,glycan array binding signal (z-score),[17],-0.516
same,glycan array binding signal (z-score),[18],-0.651
same,glycan array binding signal (z-score),[19],-0.427
same,glycan array binding signal (z-score),[20],-0.186
same,glycan array binding signal (z-score),[21],0.127
same,glycan array binding signal (z-score),[22],-0.217
same,glycan array binding signal (z-score),[23],-0.093
same,glycan array binding signal (z-score),[24],-0.018
same,glycan array binding signal (z-score),[25],-0.489
same,glycan array binding signal (z-score),[26],-0.387
same,glycan array binding signal (z-score),[27],1.22
same,glycan array binding signal (z-score),[28],3.5
same,glycan array binding signal (z-score),[29],0.22
same,glycan array binding signal (z-score),[30],-1.11

# Taken from above (2 entries):
binder,measurement,setting,value
B1,glycan array binding signal (z-score),[8],0.025
same,glycan array binding signal (z-score),[9],-0.591

# Source: the supplement of paper PMC8728848
